Results published in PMC2813880.

Amino acid sequences for entries named in this document (tags omitted). A change or cut given only in a name is not applied to a line headed by its entry.
UniProt Q8N122: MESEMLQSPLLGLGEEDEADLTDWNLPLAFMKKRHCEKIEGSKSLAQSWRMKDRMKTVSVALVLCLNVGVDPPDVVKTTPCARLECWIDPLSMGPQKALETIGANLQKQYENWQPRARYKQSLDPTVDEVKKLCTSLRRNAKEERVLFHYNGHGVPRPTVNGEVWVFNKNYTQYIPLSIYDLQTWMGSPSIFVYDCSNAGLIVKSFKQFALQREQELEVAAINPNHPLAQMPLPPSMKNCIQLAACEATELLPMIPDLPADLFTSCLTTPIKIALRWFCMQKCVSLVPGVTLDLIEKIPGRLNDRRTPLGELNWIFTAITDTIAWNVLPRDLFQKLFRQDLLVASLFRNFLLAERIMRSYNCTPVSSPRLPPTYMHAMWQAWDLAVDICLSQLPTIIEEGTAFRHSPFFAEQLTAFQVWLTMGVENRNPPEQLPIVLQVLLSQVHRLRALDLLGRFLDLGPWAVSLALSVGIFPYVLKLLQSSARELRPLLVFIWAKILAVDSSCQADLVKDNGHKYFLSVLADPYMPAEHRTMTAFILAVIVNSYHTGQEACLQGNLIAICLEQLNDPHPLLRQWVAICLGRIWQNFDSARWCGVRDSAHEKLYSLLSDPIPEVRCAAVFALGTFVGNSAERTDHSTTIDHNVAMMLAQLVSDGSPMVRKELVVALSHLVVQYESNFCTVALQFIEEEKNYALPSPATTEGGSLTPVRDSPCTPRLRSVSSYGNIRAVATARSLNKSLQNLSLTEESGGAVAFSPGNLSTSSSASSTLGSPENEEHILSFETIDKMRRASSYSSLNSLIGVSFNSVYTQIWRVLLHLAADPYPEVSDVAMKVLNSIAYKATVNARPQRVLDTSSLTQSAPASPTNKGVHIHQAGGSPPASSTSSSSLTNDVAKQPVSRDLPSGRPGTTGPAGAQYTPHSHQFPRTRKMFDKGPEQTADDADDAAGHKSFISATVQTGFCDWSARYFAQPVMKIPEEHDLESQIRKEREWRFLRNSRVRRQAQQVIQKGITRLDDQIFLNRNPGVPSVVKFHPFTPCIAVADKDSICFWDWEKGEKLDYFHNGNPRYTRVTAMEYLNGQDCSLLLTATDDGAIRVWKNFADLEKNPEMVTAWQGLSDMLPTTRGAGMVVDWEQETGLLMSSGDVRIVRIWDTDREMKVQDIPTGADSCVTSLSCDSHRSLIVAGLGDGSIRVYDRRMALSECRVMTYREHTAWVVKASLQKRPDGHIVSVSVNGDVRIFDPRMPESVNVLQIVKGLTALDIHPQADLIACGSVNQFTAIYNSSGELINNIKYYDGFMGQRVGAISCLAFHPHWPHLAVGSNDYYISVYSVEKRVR
UniProt Q9DCH4: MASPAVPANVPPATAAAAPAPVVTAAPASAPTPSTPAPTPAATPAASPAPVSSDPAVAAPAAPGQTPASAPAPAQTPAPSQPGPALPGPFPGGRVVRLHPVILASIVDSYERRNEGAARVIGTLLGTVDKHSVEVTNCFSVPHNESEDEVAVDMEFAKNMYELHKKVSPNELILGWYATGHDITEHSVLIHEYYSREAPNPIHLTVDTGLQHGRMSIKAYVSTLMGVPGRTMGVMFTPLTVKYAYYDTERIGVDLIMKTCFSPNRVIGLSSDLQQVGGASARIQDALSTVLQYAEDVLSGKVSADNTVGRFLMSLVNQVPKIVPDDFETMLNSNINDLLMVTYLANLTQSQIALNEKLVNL

Target: Myc-tagged raptor (UniProt Q8N122)
Experiment: co-IP; Myc-raptor cotransfected with HA-eIF3f wt or F323A in mouse primary muscle cells, differentiated 4 days, lysed in immunoprecipitation buffer without detergent; immunoprecipitation with anti-Myc, immunoblot

binding: no binding
Substance: HA-tagged TOS motif mutant eIF3f F323A (from UniProt Q9DCH4)

These are yes or no findings as the source states them, for the method shown. Binding seen in cells or lysates may run through a third protein.
